Results taken from paper PMC13185310, “A versatile nanobody platform for live and super-resolution imaging of synaptic vesicle dynamics and plasticity in rodent and human neurons” (Journal of Nanobiotechnology, 2026).
Results are given in words; binding and its absence hold for the method and conditions named. Binding seen in cells or lysates may run through a third protein. Some binding calls cover weakened binding; strength is not graded here.

Sequences of proteins named here, by UniProt entry; tags and fusion partners are left off.
UniProt P21707: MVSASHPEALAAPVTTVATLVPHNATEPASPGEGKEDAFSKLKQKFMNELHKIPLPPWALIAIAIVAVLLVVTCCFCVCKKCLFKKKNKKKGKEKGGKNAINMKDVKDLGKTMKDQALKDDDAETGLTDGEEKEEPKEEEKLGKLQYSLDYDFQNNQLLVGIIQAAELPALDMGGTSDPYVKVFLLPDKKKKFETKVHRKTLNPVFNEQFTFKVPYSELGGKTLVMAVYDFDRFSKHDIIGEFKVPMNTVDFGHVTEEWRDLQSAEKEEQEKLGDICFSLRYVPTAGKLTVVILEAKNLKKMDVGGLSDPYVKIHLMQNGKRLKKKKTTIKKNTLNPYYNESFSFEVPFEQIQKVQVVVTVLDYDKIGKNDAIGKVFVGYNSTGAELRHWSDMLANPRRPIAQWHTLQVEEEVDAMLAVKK

Target: endogenous Synaptotagmin 1 of primary hippocampal neurons (proximity labelling and PLA) (rat (endogenous in primary hippocampal neurons)) (UniProt P21707)
Experiment: proximity ligation; in situ PLA (Duolink) in primary hippocampal neurons with mouse anti-Syt1 luminal and rabbit anti-CNTFRα antibodies applied live (40 min, 37 °C); control: anti-ribeye; also after TTX (3 µM, 2 h; signal decreased) or Cntf (8 nM, 2 h; signal unchanged)

binding: binds
B1: ciliary neurotrophic factor receptor (Cntfr) (receptor, UniProt Q08406 23-342)
chain: QKHSPQEAPHVQYERLGTDVTLPCGTASWDAAVTWRVNGTDLAPDLLNGSQLILRSLELGHSGLYACFHRDSWHLRHQVLLHVGLPPREPVLSCRSNTYPKGFYCSWHLSAPTYIPNTFNVTVLHGSKMMVCEKDPALKNRCHIRYMHLFSTIKYKVSISVSNALGHNTTAITFDEFTIVKPDPPENVVARPVPSNPRRLEVTWQTPSTWPDPESFPLKFFLRYRPLILDQWQHVELSNGTAHTITDAYAGKEYIIQVAAKDNEIGTWSDWSVAAHATPWTEEPRHLTTEAQAPETTTSTTSSLAPPPTTKICDPGELSS
